Measured values taken from paper PMC3743401.
These are yes or no findings as the source states them, for the method shown. Binding seen in cells or lysates may run through a third protein. Here binding means that the protein was enriched with, or labelled near, the bait; the list need not be complete.

Sequences of proteins named here, by UniProt entry; tags and fusion partners are left off.
UniProt Q9Y6K9: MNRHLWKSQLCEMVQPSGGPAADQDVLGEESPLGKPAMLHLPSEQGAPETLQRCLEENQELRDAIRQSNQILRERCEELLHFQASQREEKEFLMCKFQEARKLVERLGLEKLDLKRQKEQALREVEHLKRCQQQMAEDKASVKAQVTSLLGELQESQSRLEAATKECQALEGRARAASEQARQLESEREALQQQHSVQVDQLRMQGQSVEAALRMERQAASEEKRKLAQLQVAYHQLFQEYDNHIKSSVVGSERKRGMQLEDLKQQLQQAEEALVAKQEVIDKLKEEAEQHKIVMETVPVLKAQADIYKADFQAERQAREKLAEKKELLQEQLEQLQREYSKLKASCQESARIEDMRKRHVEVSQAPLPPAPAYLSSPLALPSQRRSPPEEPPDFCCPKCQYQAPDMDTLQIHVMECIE
UniProt Q07832: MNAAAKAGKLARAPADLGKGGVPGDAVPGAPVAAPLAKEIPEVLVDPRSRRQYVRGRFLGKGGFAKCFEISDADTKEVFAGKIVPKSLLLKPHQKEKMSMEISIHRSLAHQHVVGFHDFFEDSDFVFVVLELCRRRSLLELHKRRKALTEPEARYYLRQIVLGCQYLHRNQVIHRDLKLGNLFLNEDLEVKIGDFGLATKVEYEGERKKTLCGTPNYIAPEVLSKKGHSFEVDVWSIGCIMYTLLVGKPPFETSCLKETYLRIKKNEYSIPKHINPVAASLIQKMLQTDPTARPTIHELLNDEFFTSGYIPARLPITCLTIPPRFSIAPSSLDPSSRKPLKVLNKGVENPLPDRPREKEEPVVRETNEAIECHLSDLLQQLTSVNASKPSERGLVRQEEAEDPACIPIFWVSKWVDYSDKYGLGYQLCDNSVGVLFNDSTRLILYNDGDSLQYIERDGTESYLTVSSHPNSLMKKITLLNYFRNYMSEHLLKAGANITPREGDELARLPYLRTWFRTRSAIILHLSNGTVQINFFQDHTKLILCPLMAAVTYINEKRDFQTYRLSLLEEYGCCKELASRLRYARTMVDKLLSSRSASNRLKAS
UniProt Q62210: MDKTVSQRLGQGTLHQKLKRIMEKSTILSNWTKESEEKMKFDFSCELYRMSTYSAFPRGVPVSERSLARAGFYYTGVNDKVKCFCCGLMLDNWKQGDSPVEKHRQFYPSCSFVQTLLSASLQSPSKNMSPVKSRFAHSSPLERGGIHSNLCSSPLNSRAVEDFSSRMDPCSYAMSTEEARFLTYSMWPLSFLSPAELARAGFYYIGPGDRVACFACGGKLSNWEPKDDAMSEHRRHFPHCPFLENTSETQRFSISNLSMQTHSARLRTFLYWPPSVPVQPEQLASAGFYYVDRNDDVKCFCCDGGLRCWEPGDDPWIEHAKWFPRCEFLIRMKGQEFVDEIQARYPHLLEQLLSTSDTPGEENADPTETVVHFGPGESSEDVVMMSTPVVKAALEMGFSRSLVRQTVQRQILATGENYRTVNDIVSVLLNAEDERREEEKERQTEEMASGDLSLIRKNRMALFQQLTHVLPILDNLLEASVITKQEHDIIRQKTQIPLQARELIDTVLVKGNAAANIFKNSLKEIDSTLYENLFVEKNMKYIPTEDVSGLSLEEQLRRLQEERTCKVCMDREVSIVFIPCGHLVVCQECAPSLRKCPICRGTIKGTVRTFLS

B1: TRAF2 (endogenous, MEFs) (enzyme, UniProt P39429 1-501)
chain: MAAASVTSPGSLELLQPGFSKTLLGTRLEAKYLCSACKNILRRPFQAQCGHRYCSFCLTSILSSGPQNCAACVYEGLYEEGISILESSSAFPDNAARREVESLPAVCPNDGCTWKGTLKEYESCHEGLCPFLLTECPACKGLVRLSEKEHHTEQECPKRSLSCQHCRAPCSHVDLEVHYEVCPKFPLTCDGCGKKKIPRETFQDHVRACSKCRVLCRFHTVGCSEMVETENLQDHELQRLREHLALLLSSFLEAQASPGTLNQVGPELLQRCQILEQKIATFENIVCVLNREVERVAVTAEACSRQHRLDQDKIEALSNKVQQLERSIGLKDLAMADLEQKVSELEVSTYDGVFIWKISDFTRKRQEAVAGRTPAIFSPAFYTSRYGYKMCLRVYLNGDGTGRGTHLSLFFVVMKGPNDALLQWPFNQKVTLMLLDHNNREHVIDAFRPDVTSSSFQRPVSDMNIASGCPLFCPVSKMEAKNSYVRDDAIFIKAIVDLTGL
B2: HOIL-1 (endogenous, MEFs) (enzyme, UniProt Q9WUB0 1-508)
chain: MDEKTKKAEEMALSLARAVAGGDEQAAIKYATWLAEQRVPLRVQVKPEVSPTQDIRLCVSVEDAYMHTVTIWLTVRPDMTVASLKDMVFLDYGFPPSLQQWVVGQRLARDQETLHSHGIRRNGDGAYLYLLSARNTSLNPQELQRQRQLRMLEDLGFKDLTLQSRGPLEPVLPKPRTNQEPGQPDAAPESPPVGWQCPGCTFINKPTRPGCEMCCRARPETYQIPASYQPDEEERARLAGEEEALRQYQQRKQQQQEGNYLQHVQLEQRSLVLNTEPTECPVCYSVLAPGEAVVLRECLHTFCRECLQGTIRNSQEAEVACPFIDSTYSCPGKLLEREIRALLSPEDYQRFLDLGVSIAENRSTLSYHCKTPDCRGWCFFEDDVNEFTCPVCTRVNCLLCKAIHEHMNCREYQDDLALRAQNDVAARQTTEMLKVMLQQGEAMHCPQCRIVVQKKDGCDWIRCTVCHTEICWVTKGPRWGPGGPGDTSGGCRCRVNGIPCHPSCQNCH
B3: Sharpin (endogenous, MEFs) (protein, UniProt Q91WA6 1-380)
chain: MSPPAGGAAVAADPASPVVLLAVHAAVRPLGAGQDAEAQPRKLQLIADPERPGRFRLGLLGTEPGAVSLEWPLEAICYTVRGPNQHELQPPPGGPGTFSVHFLDPEEAQQWAALVRDATAEGQNGSGSPAPAPAPAMCPISPPCSSMAQIPKATQPEVDLPQSSGNFKKEELATRLSQAIAGGDEKAAAQVAAVLAQHHVALNVQLMEAWFPPGPIRLQVTVEDATSVLSSSSSAHVSLKIHPHCSIAALQDQVFSEFGFPPAVQRWVIGRCLCMPERSLASYGVSQDGDPAFLYLLSAPREVSGQSLQNSKMDRKLGLFPQSLGLPHDLQPSSSSLPSPSQPGWSCPSCTFINASNRPGCEMCSTQRPCAWDPLAAAST

target: Flag-NEMO (purified, wild type) (human) (UniProt Q9Y6K9); test: affinity purification with mass spectrometry; in vitro SILAC: heavy or light MEF cytosolic extracts incubated with Flag-NEMO protein (WT or UBDm) and ATP with or without His6-MAVSΔTM at 30°C for 1 hr; Flag immunoprecipitation; SDS-PAGE; nanoLC-MS/MS; only the target purified

| Molecule | binding |
| --- | --- |
| PLK1 (endogenous, MEF extract) (from UniProt Q07832 1-603) (enzyme) | binds |
| cIAP1 (endogenous, MEF extract) (from UniProt Q62210 1-612) (enzyme) | binds |
| B1 | binds |
| B2 | binds |
| B3 | binds |
